# Screening data, single-dose tests

Measurements from “University of Dundee, Small-Polar-MMV Screening Library” (2021), ChEMBL document CHEMBL3988442.

Values are the deposited “Percent Effect”, in %. How 0% and 100% were set is not recorded. Most values in the screen are low, and negative values occur. Compounds were drawn at random from those tested, without regard to their results.

A: 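Assay of Toxoplasma gondii numbers, read through their beta-galactosidase reporter with a colour substrate. Compounds at 10 µM. The record gives no direction; the compounds picked for IC50 retests had high values, so higher reads as fewer parasites. About 67,000 compounds were tested under these conditions; 0.38% (about 260) showed 50% or more at least once.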
B: 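Whole-parasite assay of Trypanosoma brucei over 72 hours; the read-out is not stated. Concentration: 30 µM. Direction is inferred from retests: higher values go with stronger inhibition. Values scatter widely below zero; nearly all retest evidence comes from the higher of the two concentrations used. Size under these conditions: about 64,000 compounds, about 940 of them at 50% or above in at least one test.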

SMILES: CCCn1nnnc1CSc1nccn1CC
A: -1.746%
B: -4.143%

SMILES: O=C1NCCCCC1Sc1nnc(C2CC2)n1C1CC1 (stereo not drawn)
A: -0.4379%
B: -62.25%

SMILES: Cc1nn(C2CCS(=O)(=O)C2)c(O)c1Cc1ccccc1 (stereo not drawn)
A: -3.514%
B: -32.35%

SMILES: O=c1[nH]c(NCc2cccc(-c3ccccc3)c2)nc2c1CCNC2
A: 0.534%
B: -21.05%

SMILES: [H][C@@]12CCCO[C@]1([H])[C@H](OCC1CC1)CN2Cc1scnc1C
A: 7.177%
B: 14.94%

SMILES: CC(C)c1nc(CCn2cncn2)n(-c2ccc3c(c2)OCCO3)n1
A: 3.822%
B: -4.734%

SMILES: CC(=O)Nc1ccc(OCc2noc(C(=O)N3CCCCC3)n2)cc1
A: 3.204%
B: -14.01%

SMILES: COc1ccc(F)c(CN2CCCC(O)(CNCC(C)(C)C)C2=O)c1 (stereo not drawn)
A: 19.7%
B: -47.22%

SMILES: Cc1ccc(C(=O)N2CCC3(CCN(C(=O)c4cccnc4)C3)CC2)o1.O=C(O)C(F)(F)F
A: 1.237%

SMILES: O=C(O)C(F)(F)F.O=C(O)C(F)(F)F.O=C(O)C(F)(F)F.[H][C@@]12CCCO[C@]1([H])[C@@H](Oc1ncccc1F)CN2Cc1cnn(C)c1
A: -0.8629%
B: -13.14%

SMILES: O=C(O)C(F)(F)F.O=C(c1cccnc1)N1CCC2(CC1)CCN(c1ccsc1)C2=O
A: -2.993%
B: -24.71%

SMILES: CCCC(C)CN1CCC(n2cc(C3CCCC3)nn2)CC1 (stereo not drawn)
A: -4.075%
B: 4.035%

SMILES: c1ccc(-c2nc(CN3CCOC(Cn4cccn4)C3)no2)cc1 (stereo not drawn)
A: -2.871%
B: -6.858%

SMILES: O=C(CCCn1ccnc1)NC1CCCN(c2ccccc2Cl)C1 (stereo not drawn)
A: -13.85%
B: -36.7%

SMILES: COc1nccc(N2CC[C@@H](N3CCCCCC3)[C@H](O)C2)c1C#N
A: -2.55%
B: -7.716%

SMILES: CCN(C(=O)CCc1ccccc1)C1CC(=O)NC1=O (stereo not drawn)
A: -8.573%
B: -52.75%

SMILES: Cc1ccc(C(C)NC(=O)N2CCNC(=O)CC2)cc1F (stereo not drawn)
A: -5.898%
B: -33.98%

SMILES: COCCC(=O)N1CCCC(CCC(=O)NCc2cccc(OC)c2)C1 (stereo not drawn)
A: 31.48%
B: -20.06%

SMILES: N#Cc1c(Cl)nsc1NCc1cccnc1OCC(F)(F)F
A: 25.91%
B: -18.7%

SMILES: CC(C)n1c(C2CCCN(CC(=O)NC3CC3)C2)nc2ccccc21 (stereo not drawn)
A: -28.12%
B: -16.14%

SMILES: Cc1ccc(N(C)C2CCN(C(=O)c3ccsc3)CC2)nn1
A: 8.788%
B: 59.68%

SMILES: CCSC(C)C(=O)N1CCC(c2nn(C)c(=O)n2-c2ccccc2)CC1 (stereo not drawn)
A: -0.4369%
B: -2.74%

SMILES: Cc1ccc(C2(O)CCN(C(=O)c3sccc3S(N)(=O)=O)CC2)nc1
A: 17.12%
B: 7.071%

SMILES: COCCC1COC2(CCN(C(=O)CC3CCCC3)CC2)C1 (stereo not drawn)
A: -4.395%
B: -9.121%

SMILES: O=C(NCCNc1cnccn1)N1CCCC(N2CCCC2)C1 (stereo not drawn)
A: -11.64%
B: -15.27%

SMILES: Cc1cc(C)c(CNC(=O)NCC(O)COc2ccccc2)c(=O)[nH]1 (stereo not drawn)
A: -5.712%
B: -44.82%

SMILES: CCOCc1cnc2n1CCN(C(=O)Cc1cccs1)C2C (stereo not drawn)
A: -10.1%
B: -34.36%

SMILES: COCCN1CCN(CC(=O)N(C)Cc2ccc(F)cc2)CC1C (stereo not drawn)
A: 5.165%
B: -21.59%

SMILES: CCCNC(=O)COc1cccc(-c2nc(C(C)C)no2)c1
A: -6.211%
B: 13.89%

SMILES: CCn1cnnc1CNC(=O)NCC(O)c1ccc(OC)cc1 (stereo not drawn)
A: -4.018%
B: -3.592%

SMILES: [H][C@]12CN(S(=O)(=O)c3ccc(C(=O)NC[C@H]4CCCO4)cc3)[C@]([H])(CN1)C2
A: -16.06%
B: -46.95%

SMILES: Cc1ccc(C2=CCN(C(=O)C3CCN(C)C(=O)C3)CC2)cc1 (stereo not drawn)
A: -3.966%
B: -12.11%

SMILES: CCSCCN1CCCN(S(C)(=O)=O)CC1
A: -1.996%
B: -40.3%

SMILES: Nc1cc(CCCNC(=O)NC2CCCC2)nn1-c1ccccc1
A: 27.53%
B: -37.36%